Laboratory results as given in publication PMC6185109.
These are yes or no findings as the source states them, for the method shown. Binding seen in cells or lysates may run through a third protein. Some binding calls cover weakened binding; strength is not graded here. Where a sequence is shown, tags or fusion partners need not be part of it.

Biological target: T1, FLAG-tagged full-length SUUR (Suppressor of Underreplication protein) (Drosophila melanogaster) (UniProt Q9VTE2)
T1 sequence: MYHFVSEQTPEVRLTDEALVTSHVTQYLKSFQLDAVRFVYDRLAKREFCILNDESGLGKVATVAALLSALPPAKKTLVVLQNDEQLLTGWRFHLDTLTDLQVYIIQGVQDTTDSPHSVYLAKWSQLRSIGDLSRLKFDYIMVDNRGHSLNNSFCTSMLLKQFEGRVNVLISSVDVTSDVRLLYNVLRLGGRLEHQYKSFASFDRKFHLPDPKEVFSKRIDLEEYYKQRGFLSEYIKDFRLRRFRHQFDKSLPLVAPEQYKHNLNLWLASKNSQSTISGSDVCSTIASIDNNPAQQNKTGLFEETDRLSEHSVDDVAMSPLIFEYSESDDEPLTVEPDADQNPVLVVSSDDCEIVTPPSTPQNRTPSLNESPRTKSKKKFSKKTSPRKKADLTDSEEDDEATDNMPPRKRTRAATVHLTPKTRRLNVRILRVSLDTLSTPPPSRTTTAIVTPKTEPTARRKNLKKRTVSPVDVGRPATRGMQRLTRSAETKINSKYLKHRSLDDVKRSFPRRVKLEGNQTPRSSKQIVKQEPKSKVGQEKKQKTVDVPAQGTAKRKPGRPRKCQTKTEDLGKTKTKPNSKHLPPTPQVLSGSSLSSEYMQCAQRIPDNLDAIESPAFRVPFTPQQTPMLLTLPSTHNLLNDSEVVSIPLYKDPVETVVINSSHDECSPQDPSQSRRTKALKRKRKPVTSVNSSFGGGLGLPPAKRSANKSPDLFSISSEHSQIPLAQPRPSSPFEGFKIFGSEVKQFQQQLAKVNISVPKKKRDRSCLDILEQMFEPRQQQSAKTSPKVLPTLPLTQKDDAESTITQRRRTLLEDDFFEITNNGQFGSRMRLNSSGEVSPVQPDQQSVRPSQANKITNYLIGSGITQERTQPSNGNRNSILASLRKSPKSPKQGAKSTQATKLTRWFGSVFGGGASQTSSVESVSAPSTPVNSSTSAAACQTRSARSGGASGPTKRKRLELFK
Assay: co-IP; FLAG-SUUR immunoprecipitated from 0 to 24 hr embryos extracted with NP40 lysis buffer with or without Benzonase treatment; blots with anti-Rif1 and anti-FLAG; wild-type as no-FLAG control

B1: Rif1 (Rap1-interacting factor 1) (protein, UniProt Q9XZ34 1-1416)
chain: MDVDFGAQAGQSYRTVQLSAKEVLAAGRRQHYCNMIDLLASSCKSSGLIATSFTDDELVEFWLGDILPLMFDADRKIQDCAVAALAEALVALDVSVIHSAKCWPQIRSEFVDKYTIIIGEMRDAKNSNWHKIWTLLVQIMDEDLLRGCVYINKFLALVELGFRNPDNGVRSEAFLCWRVLIKIFAAYDELTSAKRLRLLLIPLRTSQSRSSHVSGIKLRVWWYLLSCLDHELPKSFDSAVEHFLAFMLGGGPRNLATGLAHNYQTARELALPCLVALWGVESSEPLQRLMRELRLETLVQPSPLMSVEVFQQHWKPLLAAAVSGLKLLTENDATEAEQLLLQLLVRNLCLAMFRLAVAPFNVACCSEIEKILQAEDNSGGRVVRALFNTIAADNLVMERVSGSDHLDVLEAYLKLVLKSKTEVPAAILQRSIACIFAVDRIEANNQNEFRMLGSFAELLMQANDEEDFEGFAFKLQVWRQVSQALSNYLRNNALEYRVAHNASLLDTWLLWPLQTLAAFAGRRASNSFDASFCDQWRQLVNAGQNAPGRKKFLTDLKATLTDLLKSKDEPLFAELFDAYVTSLIKFGLCKEAPLYKDVFGLLQTIFEQPSSQKTLEACLNTLRNLVVELRQNELMVVFDSLKPTLSSGIQCWNKMKCEGGFLEEWKRGIQEKFRKLPMKTMANQLKELFKADDLFVIIPSVWSLNPEKLTDRQKERFAEKSDIPALYNDMSQSQDSASIKPWTPKKVVIAKSKQGELALTGKDDNGEVIDITASEESEKEPVRVDVVTPIRKKPGRKSQAQKELEAAARAASLAEEPPKRQTRTRAAQKETEQVAQPQPAFEPQLRSPKKLPPSPVVQSTAAAVKQAKVAKPTPVVVIAQSEDLFPEVAAEPEPQPEPVKKPDPVPETTQLTPPDVPLEAVPSTQLPGSSGDPAASAGAVAAGEMSPKKSGTRIYNLSSPPDRKQTNNSSSPTLRPKPTGHLTGRGAQLINMIRNKKLDAASGSPYACMSTSRLVHQVTPARAQDRAEQVSTPTSELNELTGTDHTSTPIQAPPSKDLLVFSKRLPSPSASPSVSILKRKLRCESLDDVTLDSPALKRKRVSFHDPPVSVTKEYLRDAEETRSSLKPKRCLLMDKVAQTTEMRQALRRRGRLDSIIEIERFASEQTARTATTDKSLDKSTGEAPEEDAFTSLKWNDTGNAHNISISEEPVKAMEVESELETAGQDLAIMDPEAALDLAVAQLPLESVLQRYFDKSPLKSAGMLAKFLSAQMTANEKLKTNVLETLSENHSKDFLDHAVRENLSSVVCDRLNPTSVLEYVCAKSKISASCRNGLLAQVPEILKSGPRSDSERLAFVQQLMVQCSPGDDLLLDLIDLLMRTRRERNNSTSTHISKGVVSAVGSPDNVAETAADSSSNL
In the case of B1, the binding is reported as “binds”.
